# Source: paper PMC6914800
# These are yes or no findings as the source states them, for the method shown. Binding seen in cells or lysates may run through a third protein. A yes stands for co-enrichment or nearness to the bait. Other partners may have been found.
# Molecular target: T1, Paraspeckle component 1 (PSPC1), endogenous (human (endogenous in Huh-7)) (UniProt Q8WXF1)
# T1 sequence: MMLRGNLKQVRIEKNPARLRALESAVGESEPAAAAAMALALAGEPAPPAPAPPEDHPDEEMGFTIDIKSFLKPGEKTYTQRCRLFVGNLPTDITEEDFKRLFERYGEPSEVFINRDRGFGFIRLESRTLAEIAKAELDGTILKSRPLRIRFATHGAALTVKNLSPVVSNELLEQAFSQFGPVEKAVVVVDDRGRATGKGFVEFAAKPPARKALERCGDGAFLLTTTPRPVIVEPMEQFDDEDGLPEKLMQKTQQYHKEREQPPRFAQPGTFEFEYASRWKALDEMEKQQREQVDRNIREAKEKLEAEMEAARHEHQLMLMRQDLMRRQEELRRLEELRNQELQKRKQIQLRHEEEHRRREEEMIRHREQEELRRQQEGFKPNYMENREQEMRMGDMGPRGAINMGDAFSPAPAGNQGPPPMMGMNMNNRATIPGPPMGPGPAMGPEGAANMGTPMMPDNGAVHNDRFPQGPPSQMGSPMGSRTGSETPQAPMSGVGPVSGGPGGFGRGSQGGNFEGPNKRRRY
# Test: affinity purification with mass spectrometry; PSPC1 IP with Huh-7 cell lysate; co-precipitated proteins separated by SDS-PAGE, Coomassie-stained bands digested with trypsin, LC-MS/MS
substance,measurement,value
"Protein tyrosine kinase 6 (PTK6), endogenous (from UniProt Q13882 1-451) (enzyme)",binding,binds
